# Laboratory results: publication PMC5027291, “The NF-YC–RGL2 module integrates GA and ABA signalling to regulate seed germination in Arabidopsis” (Nature Communications, 2016)
# Sequences of proteins named here, by UniProt entry; tags and fusion partners are left off. A change or cut given only in a name is not applied to a line headed by its entry.
# UniProt P06774: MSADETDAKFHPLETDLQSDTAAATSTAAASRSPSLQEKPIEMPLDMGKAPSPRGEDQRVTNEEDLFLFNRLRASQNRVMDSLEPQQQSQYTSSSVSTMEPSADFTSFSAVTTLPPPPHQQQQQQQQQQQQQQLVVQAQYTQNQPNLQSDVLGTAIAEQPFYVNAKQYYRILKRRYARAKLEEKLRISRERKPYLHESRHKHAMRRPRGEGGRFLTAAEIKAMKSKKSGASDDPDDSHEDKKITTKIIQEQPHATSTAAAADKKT
# These are yes or no findings as the source states them, for the method shown. For some assays here: Binding seen in cells or lysates may run through a third protein. Some results given as binding are weak or reduced against the parent protein; the word gives no strength. For some assays here: Sequences can lack the tags named with a protein.
# T1: GST-RGL2 (Arabidopsis, UniProt Q8GXW1 1-547)
# T1 construct: RGL2 of Arabidopsis; coding region cloned into pGEX-4T-1; source: E. coli Rosetta (DE3), purified (Glutathione Sepharose beads); not shown: GST, N-terminal, kept
# T1 sequence (looked up): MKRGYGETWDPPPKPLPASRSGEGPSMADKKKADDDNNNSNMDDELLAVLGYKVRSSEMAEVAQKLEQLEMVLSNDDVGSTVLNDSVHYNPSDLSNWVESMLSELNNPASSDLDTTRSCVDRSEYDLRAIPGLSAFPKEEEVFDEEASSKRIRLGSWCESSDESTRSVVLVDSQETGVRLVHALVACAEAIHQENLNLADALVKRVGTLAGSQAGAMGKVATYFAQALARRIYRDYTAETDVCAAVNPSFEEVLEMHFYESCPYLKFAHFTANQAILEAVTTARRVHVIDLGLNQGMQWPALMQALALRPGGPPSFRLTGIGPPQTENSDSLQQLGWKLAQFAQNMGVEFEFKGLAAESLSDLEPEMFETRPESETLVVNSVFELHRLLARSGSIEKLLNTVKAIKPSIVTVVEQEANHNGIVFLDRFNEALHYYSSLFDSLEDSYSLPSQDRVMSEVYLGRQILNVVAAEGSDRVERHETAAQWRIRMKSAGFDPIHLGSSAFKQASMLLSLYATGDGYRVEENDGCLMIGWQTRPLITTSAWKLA
# T2: RGL2-cEYFP (Arabidopsis) (UniProt Q8GXW1)
# T2 sequence: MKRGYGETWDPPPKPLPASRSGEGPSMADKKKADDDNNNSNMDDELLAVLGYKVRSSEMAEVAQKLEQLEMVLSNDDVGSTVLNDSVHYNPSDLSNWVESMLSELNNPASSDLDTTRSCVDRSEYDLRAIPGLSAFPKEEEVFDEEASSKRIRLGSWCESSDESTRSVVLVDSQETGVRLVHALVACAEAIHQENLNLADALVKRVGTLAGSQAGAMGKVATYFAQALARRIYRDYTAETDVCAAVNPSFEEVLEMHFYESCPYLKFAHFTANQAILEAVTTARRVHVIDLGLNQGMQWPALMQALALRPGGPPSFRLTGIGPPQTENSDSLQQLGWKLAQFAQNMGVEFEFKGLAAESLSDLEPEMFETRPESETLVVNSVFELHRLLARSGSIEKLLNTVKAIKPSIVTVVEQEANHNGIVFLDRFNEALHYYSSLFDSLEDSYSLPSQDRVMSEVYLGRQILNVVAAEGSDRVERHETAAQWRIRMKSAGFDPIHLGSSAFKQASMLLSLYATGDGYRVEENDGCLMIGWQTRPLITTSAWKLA
# Experiments:
# GST-RGL2 = biological target: T1, GST-RGL2; assay: pull-down; protein-DNA affinity pull-down: 1 ug each of His-NF-YC9, His-Yeast NF-YA and His-Yeast NF-YB pre-incubated with DNA fragments (100 mM phosphate, 150 mM NaCl, 1 mM EDTA, pH 7.5, 4 °C, 4 h), then mixed with GST or GST-RGL2 on Glutathione Sepharose beads for 4 h; DNA by qPCR, proteins by anti-His or anti-GST; both purified
# RGL2-cEYFP (Arabidopsis) = biological target: T2, RGL2-cEYFP (Arabidopsis); assay: split reporter; BiFC of NF-YC9-nEYFP and RGL2-cEYFP in Arabidopsis mesophyll protoplasts, 12 h after PEG-mediated transformation, confocal microscopy
Molecule,binding (GST-RGL2),binding (RGL2-cEYFP (Arabidopsis))
NF-YA core/NF-YB core/NF-YC9 complex (from UniProt P06774 158-214; P13434 35-127; Q8L4B2 1-231),binds,
"His-NF-YC9 (natural protein, Arabidopsis, UniProt Q8L4B2 1-231, looked up, NF-YC9 of Arabidopsis; coding region cloned into pQE30; source: E. coli Rosetta (DE3), purified (Ni-NTA agarose); not shown: His, N-terminal, kept) MDQQDHGQSGAMNYGTNPYQTNPMSTTAATVAGGAAQPGQLAFHQIHQQQQQQQLAQQLQAFWENQFKEIEKTTDFKNHSLPLARIKKIMKADEDVRMISAEAPVVFARACEMFILELTLRSWNHTEENKRRTLQKNDIAAAVTRTDIFDFLVDIVPREDLRDEVLGSIPRGTVPEAAAAGYPYGYLPAGTAPIGNPGMVMGNPGGAYPPNPYMGQPMWQQQAPDQPDQEN",,binds
